These are yes or no findings as the source states them, for the method shown. Binding seen in cells or lysates may run through a third protein. Some entries that bind do so weakly or less than the wild type. For some assays here: Sequences can lack the tags named with a protein.

By UniProt entry, the sequences of proteins in these tests, tags left out.
UniProt Q12329: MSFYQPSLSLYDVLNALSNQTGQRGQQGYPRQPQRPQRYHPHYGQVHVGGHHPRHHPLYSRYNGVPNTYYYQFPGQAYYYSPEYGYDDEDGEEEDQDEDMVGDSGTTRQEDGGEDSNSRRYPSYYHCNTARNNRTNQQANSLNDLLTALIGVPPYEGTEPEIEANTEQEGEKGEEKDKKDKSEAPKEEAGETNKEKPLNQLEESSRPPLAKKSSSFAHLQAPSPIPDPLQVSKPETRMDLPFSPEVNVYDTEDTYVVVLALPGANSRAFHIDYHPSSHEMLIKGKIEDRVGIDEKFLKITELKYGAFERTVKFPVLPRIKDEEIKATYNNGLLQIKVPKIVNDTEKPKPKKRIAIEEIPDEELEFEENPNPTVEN
UniProt P29469: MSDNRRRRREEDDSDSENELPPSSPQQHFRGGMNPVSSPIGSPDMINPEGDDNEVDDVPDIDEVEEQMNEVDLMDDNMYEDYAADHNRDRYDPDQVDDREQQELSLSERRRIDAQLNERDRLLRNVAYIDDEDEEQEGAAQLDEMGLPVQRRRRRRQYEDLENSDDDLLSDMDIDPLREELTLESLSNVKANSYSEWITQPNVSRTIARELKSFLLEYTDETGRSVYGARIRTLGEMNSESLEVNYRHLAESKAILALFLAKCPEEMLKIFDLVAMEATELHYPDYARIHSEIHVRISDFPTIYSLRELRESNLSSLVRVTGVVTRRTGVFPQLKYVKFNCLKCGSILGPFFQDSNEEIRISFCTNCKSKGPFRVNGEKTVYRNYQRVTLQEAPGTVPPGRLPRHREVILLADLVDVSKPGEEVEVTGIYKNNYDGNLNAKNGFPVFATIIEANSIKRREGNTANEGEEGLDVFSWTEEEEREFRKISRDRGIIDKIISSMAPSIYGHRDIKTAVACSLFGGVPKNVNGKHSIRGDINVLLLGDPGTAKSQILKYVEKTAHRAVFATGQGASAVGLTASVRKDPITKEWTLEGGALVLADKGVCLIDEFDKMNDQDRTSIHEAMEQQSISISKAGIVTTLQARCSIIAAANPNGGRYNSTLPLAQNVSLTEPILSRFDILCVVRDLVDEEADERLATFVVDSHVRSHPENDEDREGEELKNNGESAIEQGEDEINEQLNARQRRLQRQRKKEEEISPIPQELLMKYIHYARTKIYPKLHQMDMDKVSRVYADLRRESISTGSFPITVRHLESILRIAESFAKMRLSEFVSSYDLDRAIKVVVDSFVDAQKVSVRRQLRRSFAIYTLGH

For one experiment, the target named is T1, Btn2-VN (S. cerevisiae) (UniProt P53286).
T1 sequence: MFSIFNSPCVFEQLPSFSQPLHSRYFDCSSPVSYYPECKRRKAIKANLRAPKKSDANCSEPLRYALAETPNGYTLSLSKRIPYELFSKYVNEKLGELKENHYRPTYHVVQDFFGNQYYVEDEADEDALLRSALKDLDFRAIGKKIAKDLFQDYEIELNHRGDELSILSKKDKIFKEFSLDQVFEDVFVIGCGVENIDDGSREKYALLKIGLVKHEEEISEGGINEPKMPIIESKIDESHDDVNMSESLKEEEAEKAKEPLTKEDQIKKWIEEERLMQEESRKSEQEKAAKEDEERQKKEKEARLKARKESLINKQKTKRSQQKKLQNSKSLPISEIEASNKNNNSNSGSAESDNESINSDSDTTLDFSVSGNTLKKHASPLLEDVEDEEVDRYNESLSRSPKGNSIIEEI
Kind of experiment: split reporter.

Experiment [1] addresses T2, Mrc1-FLAG (S. cerevisiae) (UniProt P25588).
T2 sequence: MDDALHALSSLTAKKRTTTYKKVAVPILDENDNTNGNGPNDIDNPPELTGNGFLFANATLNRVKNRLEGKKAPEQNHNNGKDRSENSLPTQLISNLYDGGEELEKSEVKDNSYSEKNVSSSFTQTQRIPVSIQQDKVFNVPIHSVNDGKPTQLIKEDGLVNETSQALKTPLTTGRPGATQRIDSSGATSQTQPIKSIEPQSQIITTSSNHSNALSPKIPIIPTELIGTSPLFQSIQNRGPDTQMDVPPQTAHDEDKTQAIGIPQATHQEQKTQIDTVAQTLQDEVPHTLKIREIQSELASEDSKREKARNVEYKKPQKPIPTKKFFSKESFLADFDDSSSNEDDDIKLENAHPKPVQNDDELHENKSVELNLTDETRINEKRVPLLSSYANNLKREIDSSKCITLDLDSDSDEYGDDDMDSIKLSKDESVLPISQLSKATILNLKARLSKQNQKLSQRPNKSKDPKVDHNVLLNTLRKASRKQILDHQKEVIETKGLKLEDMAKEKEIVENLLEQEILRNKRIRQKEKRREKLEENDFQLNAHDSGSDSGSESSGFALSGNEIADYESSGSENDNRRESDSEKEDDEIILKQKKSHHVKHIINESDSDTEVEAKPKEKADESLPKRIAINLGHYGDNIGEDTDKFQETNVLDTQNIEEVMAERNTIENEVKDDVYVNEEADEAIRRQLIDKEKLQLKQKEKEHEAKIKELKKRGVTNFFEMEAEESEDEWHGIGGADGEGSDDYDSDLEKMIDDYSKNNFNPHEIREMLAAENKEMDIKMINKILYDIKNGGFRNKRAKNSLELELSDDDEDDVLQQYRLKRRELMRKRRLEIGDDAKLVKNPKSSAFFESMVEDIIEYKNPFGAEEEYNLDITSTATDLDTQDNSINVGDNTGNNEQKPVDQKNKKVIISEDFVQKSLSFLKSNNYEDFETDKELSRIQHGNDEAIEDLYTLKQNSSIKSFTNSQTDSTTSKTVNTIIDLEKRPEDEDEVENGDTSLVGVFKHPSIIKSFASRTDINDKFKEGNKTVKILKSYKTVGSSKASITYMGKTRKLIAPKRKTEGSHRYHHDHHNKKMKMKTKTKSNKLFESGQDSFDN
Briefly: co-IP.

Experiment [2] addresses T3, Mrc1-VC/VN (S. cerevisiae) (UniProt P25588).
T3 sequence: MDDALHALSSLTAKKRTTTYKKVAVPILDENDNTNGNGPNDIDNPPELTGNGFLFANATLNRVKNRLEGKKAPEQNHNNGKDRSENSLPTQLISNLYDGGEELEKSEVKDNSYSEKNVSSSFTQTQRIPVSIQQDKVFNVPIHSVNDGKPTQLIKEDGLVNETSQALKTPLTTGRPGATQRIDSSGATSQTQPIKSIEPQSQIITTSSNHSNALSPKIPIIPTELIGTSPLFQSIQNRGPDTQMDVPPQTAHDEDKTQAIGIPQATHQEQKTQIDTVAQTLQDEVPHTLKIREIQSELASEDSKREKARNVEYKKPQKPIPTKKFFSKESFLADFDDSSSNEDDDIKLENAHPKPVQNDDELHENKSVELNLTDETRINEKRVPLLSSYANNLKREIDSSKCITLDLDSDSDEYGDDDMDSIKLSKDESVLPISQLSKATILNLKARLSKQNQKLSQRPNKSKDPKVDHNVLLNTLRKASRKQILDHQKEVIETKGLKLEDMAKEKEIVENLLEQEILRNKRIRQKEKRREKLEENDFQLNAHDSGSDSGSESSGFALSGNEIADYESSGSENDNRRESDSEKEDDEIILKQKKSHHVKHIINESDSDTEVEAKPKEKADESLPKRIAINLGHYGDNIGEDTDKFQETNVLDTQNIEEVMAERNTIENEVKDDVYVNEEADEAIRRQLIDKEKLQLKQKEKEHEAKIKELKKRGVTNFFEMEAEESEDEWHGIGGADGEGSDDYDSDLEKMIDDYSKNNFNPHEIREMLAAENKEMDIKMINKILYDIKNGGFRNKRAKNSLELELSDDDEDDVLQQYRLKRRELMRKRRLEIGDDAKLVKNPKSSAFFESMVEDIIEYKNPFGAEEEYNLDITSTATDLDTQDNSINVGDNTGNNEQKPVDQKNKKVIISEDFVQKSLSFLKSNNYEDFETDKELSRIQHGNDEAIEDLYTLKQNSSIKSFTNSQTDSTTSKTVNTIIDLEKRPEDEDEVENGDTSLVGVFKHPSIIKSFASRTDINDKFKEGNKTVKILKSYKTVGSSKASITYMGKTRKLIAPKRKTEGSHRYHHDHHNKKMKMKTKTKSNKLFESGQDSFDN
Kind of experiment: split reporter.

For “Hsp42 (BiFC fusion) (from UniProt Q12329 1-375)”, the binding entry with Btn2-VN (S. cerevisiae) is “binds”.
As to Mcm2 (from UniProt P29469 1-868), the binding entry in experiment [1] was “binds”.

B1: Ctf4 (protein, UniProt Q01454 1-927)
chain: MVSVIDKLVFDFGGKTLVSLAPDNNTLCVANKNGLTKILKTNNPEEEPETLDSSKLVSSIKCYSNSHFLMTTMQGDALRYNIDSSQEELLARFALPLRDCCVIHSGKMAVFGGDDLELILLELDDETHKKHAIKIDEQVSQISYNSQMNILAVSMINGKVQIFSLTSTIPNKVHELNDYIVANSYDDTHRDKILSNMMDDIDKDNDNDLSETADPDENNVADPEFCAANRICTRVAWHPKGLHFALPCADDTVKIFSIKGYSLQKTLSTNLSSTKAHFIDLQFDPLRGTYIAAVDLNNKLTVWNWETSEIHYTREFKRKITNIAWKIQADSKTLDLVLGTWSGSIAIVQNLAESVVSNIPDQSVAESSTKHGLFVDSESDLENLEGNDDINKSDKLFSDITQEANAEDVFTQTHDGPSGLSEKRKYNFEDEEDFIDDDDGAGYISGKKPHNEHSYSRVHKTHSFPISLANTGKFRYMPFSPAGTPFGFTDRRYLTMNEVGYVSTVKNSEQYSITVSFFDVGRFREYHFEDLFGYDLCFLNEKGTLFGQSKTGQIQYRPHDSIHSNWTKIIPLQAGERITSVAATPVRVIVGTSLGYFRSFNQFGVPFAVEKTSPIVALTAQNYRVFSVHYSQFHGLSYSLSELGTSSKRYYKRECPLPMSLPNINSDMKKDANLDYYNFNPMGIKSLFFSSYGDPCIFGSDNTLLLLSKWRSPEESKWLPILDSNMEIWKMSGGKETTDIHVWPLALAYDTLNCILVKGKHIWPEFPLPLPSEMEIRMPVFVKSKLLEENKAILNKKNEIGADTEAEEGEEDKEIQIPVSMAAEEEYLRSKVLSELLTDTLENDGEMYGNENEVLAALNGAYDKALLRLFASACSDQNVEKALSLAHELKQDRALTAAVKISERAELPSLVKKINNIREARYEQQLK
In the case of B1, the binding result in experiment [1] is on record as “binds”.

B2: Btn2-HA (protein, UniProt P53286 1-410)
chain: MFSIFNSPCVFEQLPSFSQPLHSRYFDCSSPVSYYPECKRRKAIKANLRAPKKSDANCSEPLRYALAETPNGYTLSLSKRIPYELFSKYVNEKLGELKENHYRPTYHVVQDFFGNQYYVEDEADEDALLRSALKDLDFRAIGKKIAKDLFQDYEIELNHRGDELSILSKKDKIFKEFSLDQVFEDVFVIGCGVENIDDGSREKYALLKIGLVKHEEEISEGGINEPKMPIIESKIDESHDDVNMSESLKEEEAEKAKEPLTKEDQIKKWIEEERLMQEESRKSEQEKAAKEDEERQKKEKEARLKARKESLINKQKTKRSQQKKLQNSKSLPISEIEASNKNNNSNSGSAESDNESINSDSDTTLDFSVSGNTLKKHASPLLEDVEDEEVDRYNESLSRSPKGNSIIEEI
Consider B2, for which, in experiment [1], the binding entry was “binds”.

B3: Btn2-VN (protein, UniProt P53286 1-410)
chain: MFSIFNSPCVFEQLPSFSQPLHSRYFDCSSPVSYYPECKRRKAIKANLRAPKKSDANCSEPLRYALAETPNGYTLSLSKRIPYELFSKYVNEKLGELKENHYRPTYHVVQDFFGNQYYVEDEADEDALLRSALKDLDFRAIGKKIAKDLFQDYEIELNHRGDELSILSKKDKIFKEFSLDQVFEDVFVIGCGVENIDDGSREKYALLKIGLVKHEEEISEGGINEPKMPIIESKIDESHDDVNMSESLKEEEAEKAKEPLTKEDQIKKWIEEERLMQEESRKSEQEKAAKEDEERQKKEKEARLKARKESLINKQKTKRSQQKKLQNSKSLPISEIEASNKNNNSNSGSAESDNESINSDSDTTLDFSVSGNTLKKHASPLLEDVEDEEVDRYNESLSRSPKGNSIIEEI
With B3, the binding result in experiment [2] is recorded as “binds”.

B4: Cdc45 (protein, UniProt Q08032 1-650)
chain: MYYGISQFSEAYNKILRNSSSHSSCQLVIFVSCLNIDALCATKMLSLLFKKQLVQSQIVPIFGYSELRRHYSQLDDNINSLLLVGFGGVIDLEAFLEIDPQEYVIDTDEKSGEQSFRRDIYVLDAHRPWNLDNIFGSQIIQCFDDGTVDDTLGEQKEAYYKLLELDEESGDDELSGDENDNNGGDDEATDADEVTDEDEEDEDETISNKRGNSSIGPNDLSKRKQRKKQIHEYEGVLEEYYSQGTTVVNSISAQIYSLLSAIGETNLSNLWLNILGTTSLDIAYAQVYNRLYPLLQDEVKRLTPSSRNSVKTPDTLTLNIQPDYYLFLLRHSSLYDSFYYSNYVNAKLSLWNENGKKRLHKMFARMGIPLSTAQETWLYMDHSIKRELGIIFDKNLDRYGLQDIIRDGFVRTLGYRGSISASEFVEALTALLEVGNSTDKDSVKINNDNNDDTDGEEEEDNSAQKLTNLRKRWVSNFWLSWDALDDRKVELLNRGIQLAQDLQRAIFNTGVAILEKKLIKHLRIYRLCVLQDGPDLDLYRNPLTLLRLGNWLIECCAESEDKQLLPMVLASIDENTDTYLVAGLTPRYPRGLDTIHTKKPILNNFSMAFQQITAETDAKVRIDNFESSIIEIRREDLSPFLEKLTLSGLL
For the molecule B4, the binding result in experiment [1] is on record as “binds”.

B5: Ubx5-VN/VC (protein, UniProt Q06682 1-500)
chain: MSEGKVDEFMAITGADDAAIATQFIEMADGNLNTAISLFFENGGAALLSSNNTPTPSNSTPMAPTSVDSDADAQLAERLQREAYQQQQPDQDYVRPPDEARHEVLTETSGFPISYGGIGGRFEPLHRVNDMFDEGRPESIFNQRLDDTNTNTYINDNSSDSLDSEEENDDDEYEYVEEPVIELDEDGNIKEYTKLVRKPKTISKEQKLALLFRPPFSIMSKLDLDAAKQKARAKQKWIMINIQDSGIFQCQALNRDLWSSRPVKTIIKENFVFLQYQYESRNAQPYLQFYHLNNKDDLPHIAILDPITGERVKQWNRVVPIPEQFISEINEFLASFSLDPKVPNPTVNEPLPKVDPTTLTEEQQMELAIKESLNNNSSKSNQEEVPSTGEEQKRVQEPDPFSTIEARVHPEPPNKPGITTRIQIRTGDGSRLVRRFNALEDTVRTIYEVIKTEMDGFADSRFTLNDHQREDLIDKLNMTIADAGLKNSSLLLEKLDPEIE
For B5, the binding entry in experiment [2] is reported as “binds”.

B6: Ulp2-VN/VC (protein, UniProt P40537 1-1034)
chain: MSARKRKFNSLKPLDTLNSSRASSPRSSASLPPKRYNTFRKDPKIVDHLNNASTKDFLPVLSMNSESKRQIELSDNDVDNNDEGEGVNSGCSDQDFEPLQSSPLKRHSSLKSTSNGLLFQMSNNLGNGSPEPAVASTSPNGSIISTKLNLNGQFSCVDSKTLRIYRHKAPCIMTFVSDHNHPKFSLYFQQSVIYNSQVNLLDDVELIILDKKNSFMAIILKDLKKVKMILDVNNSSININTNILIWSTASSASNKKIKSIKRFLLMSYSSSIKVEILDHKEQILERLKHLIHPISSSSPSLNMERAINSTKNAFDSLRLKKTKLSTNDDESPQIHTHFLSNKPHGLQSLTKRTRIASLGKKEHSISVPKSNISPSDFYNTNGTETLQSHAVSQLRRSNRFKDVSDPANSNSNSEFDDATTEFETPELFKPSLCYKFNDGSSYTITNQDFKCLFNKDWVNDSILDFFTKFYIESSIEKSIIKREQVHLMSSFFYTKLISNPADYYSNVKKWVNNTDLFSKKYVVIPINISYHWFSCIITNLDAILDFHQNKDKNDAINSDEISINNPLVNILTFDSLRQTHSREIDPIKEFLISYALDKYSIQLDKTQIKMKTCPVPQQPNMSDCGVHVILNIRKFFENPVETIDVWKNSKIKSKHFTAKMINKYFDKNERNSARKNLRHTLKLLQLNYISYLKKENLYEEVMQMEEKKSTNINNNENYDDDDEEIQIIENIDQSSKDNNAQLTSEPPCSRSSSISTTEREPTELHNSVVRQPTGEIITDNEDPVRAASPETASVSPPIRHNILKSSSPFISESANETEQEEFTSPYFGRPSLKTRAKQFEGVSSPIKNDQALSSTHDIMMPSPKPKRIYPSKKIPQLSSHVQSLSTDSMERQSSPNNTNIVISDTEQDSRLGVNSESKNTSGIVNRDDSDVNLIGSSLPNVAEKNHDNTQESNGNNDSLGKILQNVDKELNEKLVDIDDVAFSSPTRGIPRTSATSKGSNAQLLSNYGDENNQSQDSVWDEGRDNPILLEDEDP
With B6, the binding result in experiment [2] is “binds”.

The record behind these values is doi:10.1101/2021.09.16.460581.
